These results are taken from article PMC12040169 (PLOS Biology, 2025).

The list shows a part of the results.

This experiment relates to T1, CTL2-GFP (C. trachomatis L2/434/Bu, GFP-expressing).
T1 construct: L2/434/Bu, GFP-expressing
More on the design: species or system HeLa; Intracellular C. trachomatis growth in HeLa cells, bulk GFP fluorescence relative to DMSO. The note with it: bulk GFP, single well; 28.5 h, 10 µM; inhibitor.
As to `NCCNC(=O)c1ccc(-c2cccc(C(F)(F)F)c2)o1` [CBK115927C], the “% of control remaining” value was found to be 150.226%.

On to `Cn1cnnc1SCCNC(=O)N1CCCN(Cc2cccs2)CC1` [CBK307485], for which the “% of control remaining” value is recorded as 115.024%.

On to `CC[C@H](C)[C@H](NC(=O)C1CCN(S(=O)(=O)c2ccc(Cl)c(C(F)(F)F)c2)CC1)C(=O)O` [CBK297117], for which the “% of control remaining” value amounted to 129.674%.

With `NC(=O)c1cccc(-n2cc(-c3ccsc3)nn2)c1` [CBK113076], the “% of control remaining” value came to 131.145%.

As for `COc1ccc(C(=O)N2CCC3(CCN(C(=O)Cc4cc(C)no4)C3)C2)cc1OC` (stereo not shown) [CBK131784], the “% of control remaining” value is reported as 116.595%.

Take `c1csc(C2NN=C3C4CCN(CC4)C32)c1` (stereo not shown) [CBK021915]: the “% of control remaining” value was 102.66%.

As for `CCCCN(C)c1c(C)nc2c(OCC3CCCCO3)cccn12` (stereo not shown) [CBK147180], the “% of control remaining” value came to 109.449%.

For the compound `c1ccc(OCCOc2cccnc2N2CCNCC2)cc1` [CBK200000C], the “% of control remaining” value is 119.305%.

Take `CN(Cc1cccc2ncccc12)C(=O)c1cc(C2CC2)nn1C` [CBK282537]: the “% of control remaining” value was 121.06%.

Take `COc1ccc(C(=O)Nc2ccccc2OC2CCNCC2)cc1` [CBK050282T]: the “% of control remaining” value amounted to 129.857%.

As for `CC(=O)N1N=C(COc2ccc(C)cc2)OC1c1ccc(Br)cc1` (stereo not shown) [CBK294396], the “% of control remaining” value was 135.002%.

As to `CC1CN(C(=O)NC2CC2)C(C)CN1CCCC(c1ccc(F)cc1)c1ccc(F)cc1` (stereo not shown) [CBK024927C], the “% of control remaining” value was determined as 106.416%.

Regarding `O=C(NCCc1cccs1)Nc1cccc(CN2CCCCC2)c1` [CBK306882], the “% of control remaining” value came to 61.1236%.

`O=C(c1cccc(C(F)(F)F)c1)N1CCCCCC1` [CBK074291]: the “% of control remaining” value was 179.018%.

As to `C/C(=N\NS(=O)(=O)c1ccc(C)cc1)C(C)(C)CC(=O)O` [CBK263601], the “% of control remaining” value stood at 106.834%.

With `Cc1nn2c(CN(C(=O)COc3ccccc3)c3ccccc3)nnc2c2ccccc12` [CBK268036], the “% of control remaining” value is on record as 117.506%.

With `Oc1cccc(-c2nccnc2NCc2cccs2)c1` [CBK037343], the “% of control remaining” value is given as 121.299%.

Take `Cc1ccc(C(O)CN2CCC(O)(c3ccc(F)cc3)CC2)cc1` (stereo not shown) [CBK283309]: the “% of control remaining” value is listed as 135.35%.

Regarding `CCCNc1nc(Cl)nc(NC(C)(C)C)n1` [CBK091674], the “% of control remaining” value came to 125.5%.

Consider `Cc1ccc(-n2c(SCC(=O)Nc3sc4c(c3C#N)CCCC4)nnc2-c2ccccc2O)c(C)c1` [CBK268692], for which the “% of control remaining” value was found to be 139.963%.

Turning to `O=C(NCc1ccccc1)c1ccnc2ccccc12` [CBK200191], the “% of control remaining” value is 108.443%.

In the case of `CS(=O)(=O)c1ccc(CN2C[C@@H]3OCC(=O)N(c4ccccc4)[C@@H]3C2)cc1` [CBK289237], the “% of control remaining” value is recorded as 120.244%.

Consider `Oc1ccccc1/C=N/CC(O)C/N=C/c1ccccc1O` [CBK261112], for which the “% of control remaining” value was 110.941%.

Turning to `O=C(NCCN1CCOCC1)c1cc(-c2ccc(Cl)cc2Cl)nc2ccccc12` [CBK265379], the “% of control remaining” value is recorded as 124.372%.

On to `COC(=O)c1c(NC(=S)NNC(=O)c2nn(C)c(C)c2Br)sc2c1CCC(C)C2` (stereo not shown) [CBK267052], for which the “% of control remaining” value came to 130.968%.

`Cc1cccc(C)c1NC(=O)CN(Cc1ccccc1)Cc1cc2ccc(C)c(C)c2[nH]c1=O` [CBK122696T]: the “% of control remaining” value was determined as 113.17%.

With `O=C(CN1CCCCC1)NN(Cc1ccccc1)c1ccccc1` [CBK261521G], the “% of control remaining” value is listed as 118.72%.

Turning to `Cc1ccn(CCNC(=O)c2cc3ccc(F)cc3[nH]2)n1` [CBK283209], the “% of control remaining” value was found to be 115.734%.

With `CSc1cc(-c2ccc(Cl)cc2)c(C(=O)O)s1` [CBK126740], the “% of control remaining” value stood at 86.9006%.

For `O=C(Cn1cnc2c(Cl)cc(Cl)cc2c1=O)N1CCCCCC1` [CBK305874], the “% of control remaining” value is on record as 123.943%.

Take `CN(Cc1ccccc1)S(=O)(=O)c1ccc2c(c1)n(C)c(=O)n2C` [CBK266644]: the “% of control remaining” value was found to be 135.664%.

As to `CSCCCNC(=O)c1ccccc1Nc1cccc(C(F)(F)F)c1` [CBK149551], the “% of control remaining” value amounted to 48.1867%.

For the compound `OC[C@H]1CCCN1c1nc(Br)cn2c(-c3ccccn3)cnc12` [CBK094394], the “% of control remaining” value amounted to 125.708%.

As to `CC(C)(C)c1ccnc(N[C@H]2CO[C@H]3[C@@H]2OC[C@@H]3NS(=O)(=O)Cc2ccccc2)n1` [CBK289521], the “% of control remaining” value came to 127.908%.

As for `CN1CCN(c2nc(-c3ccccc3)cc(-c3ccc(Br)cc3)n2)CC1` [CBK262774], the “% of control remaining” value is recorded as 107.411%.

In the case of `CC1(C)CC(=O)C2=C(C1)c1onc(N)c1C2Cc1ccccc1` (stereo not shown) [CBK269206], the “% of control remaining” value is listed as 88.1353%.

As for `O=c1c(-c2ccco2)[n+]([O-])c2ccccc2n1OCc1ccccn1` [CBK266570], the “% of control remaining” value worked out at 153.624%.

On to `Cc1nc2c(c(=O)[nH]1)CCN(Cc1[nH]c3ccc(F)cc3c1C)C2` [CBK283996], for which the “% of control remaining” value was 112.602%.

On to `O=c1cc(N2CCCC2)cnn1Cc1cscn1` [CBK304635], for which the “% of control remaining” value was 124.487%.

Regarding `CCCOc1ccc(O)cc1` [CBK122802], the “% of control remaining” value is on record as 166.573%.

As for `CSc1nc2ccc3nc(NC(C)=O)sc3c2s1` [CBK287567], the “% of control remaining” value is given as 135.429%.

In the case of `Sc1nnc(COc2ccccc2)n1/N=C/c1ccncc1` [CBK265360], the “% of control remaining” value was 121.907%.

With `N=C1NC(=O)/C(=C/c2cccc(OCc3cccc4ccccc34)c2)S1` [CBK263610], the “% of control remaining” value is 100%.

Take `O=C(c1cc(S(=O)(=O)NCc2ccco2)c(Cl)cc1Cl)N1CCCC1` [CBK306076]: the “% of control remaining” value amounted to 89.5509%.

On to `Nc1ncnc2c1nc1n2[C@@H]2O[C@@H]([C@H](O)C2O)[C@H]1O` (stereo partly shown) [CBK201305], for which the “% of control remaining” value amounted to 146.572%.

In the case of `O=c1[nH]c(=O)c2cc(S(=O)(=O)N3CCCC(c4ccccc4)C3)ccc2[nH]1` (stereo not shown) [CBK286381], the “% of control remaining” value turned out to be 114.439%.

Take `CC1(c2ccccc2)CC(C)(C)N(C(=O)CSc2nc3ccccc3o2)c2ccccc21` (stereo not shown) [CBK262466]: the “% of control remaining” value was 106.226%.

`Fc1cccc(N2CCN(Cc3ccccc3)CC2)n1` [CBK000144]: the “% of control remaining” value was 123.291%.

Regarding `CC1=CC(C)(C)N(CC(=O)c2ccc([N+](=O)[O-])cc2)c2c(C)cccc21` [CBK261652], the “% of control remaining” value amounted to 98.3796%.

For the compound `NS(=O)(=O)c1ccc(CCNC(=O)c2ccc(-c3ccccc3)nc2NCCc2ccccn2)cc1` [CBK076616], the “% of control remaining” value stood at 206.58%.

Regarding `Nc1nnc(C(=O)c2cc(Br)ccc2N)s1` [CBK009811], the “% of control remaining” value worked out at 127.748%.

`COc1cc(C(=O)Nc2ncccc2OCCCC#N)ccc1C` [CBK304568]: the “% of control remaining” value came to 117.975%.

Take `Cc1ccc(N(Cc2ccco2)C(=O)c2cccc(S(=O)(=O)N(C)C)c2)cc1` [CBK267578]: the “% of control remaining” value came out at 133.77%.

As for `O=C(CN1C(=O)N2CCN=C2c2ccccc21)N1CCCC1` [CBK283945], the “% of control remaining” value turned out to be 150.619%.

Turning to `COc1ccc(-n2nc3ccc(NC(=O)c4sc5ccccc5c4Cl)cc3n2)cc1Cl` [CBK264633], the “% of control remaining” value is given as 130.767%.

As to `O=C(NCC(c1ccco1)N1CCCC1)N1CCc2ccccc2C1` (stereo not shown) [CBK304392], the “% of control remaining” value is recorded as 119.553%.

Regarding `CN1CCN(c2snnc2CO)CC1` [CBK025626], the “% of control remaining” value was 135.245%.

Turning to `C=CCn1c(SCC(=O)N2CCN(c3ccccc3)CC2)nnc1-c1ccc(N)cc1` [CBK267956], the “% of control remaining” value is 120.212%.

`CN(C)CCN1C(=O)C(O)=C(C(=O)c2ccc(S(=O)(=O)N3CCOCC3)cc2)C1c1ccccc1` (stereo not shown) [CBK264668]: the “% of control remaining” value came out at 100%.

Turning to `CN(C(=O)CN1CCN(c2cc(-c3ccsc3)ncn2)CC1)c1ccccc1` [CBK091129], the “% of control remaining” value was 216.202%.

On to `O=C(N/N=C/c1cc(Br)c(Br)o1)c1cccc(F)c1` [CBK261688], for which the “% of control remaining” value turned out to be 69.215%.

`CCn1c(=O)n(CC(=O)N2C(C)CCCC2C)c2cccnc21` (stereo not shown) [CBK283825]: the “% of control remaining” value was found to be 120.765%.

With `CC(C)Nc1cncc(OCc2ccc(Cl)c(Cl)c2)n1` [CBK115653], the “% of control remaining” value turned out to be 113.602%.

Consider `COC(=O)CNC(=O)c1cc(-c2ccc(C)s2)nc2c1cnn2C(C)C` [CBK305040], for which the “% of control remaining” value is listed as 114.997%.

As for `Fc1cc(Cl)ccc1NC(=S)NCCN1CCOCC1` [CBK268441], the “% of control remaining” value is given as 128.947%.

Turning to `COc1cc(C=C2C(=O)OC(C)(C(C)(C)C)OC2=O)cc(Br)c1OC` (stereo not shown) [CBK028893], the “% of control remaining” value was 96.918%.

Regarding `CC(C)CCNCc1ccc(-c2cn(CC(=O)NCc3ccc(C(F)(F)F)cc3)cn2)cc1` [CBK165976], the “% of control remaining” value is 127.692%.

With `CCC(C)(C)c1ccc(S(=O)(=O)N2CCN(Cc3cccc4cccnc34)CC2)cc1` [CBK062830], the “% of control remaining” value worked out at 77.3576%.

On to `c1coc(CNc2cncc(-c3cccc4ccccc34)n2)c1` [CBK065573], for which the “% of control remaining” value is 76.8314%.

Turning to `O=C(Nc1ccc2oc(-c3cccnc3)nc2c1)c1cc([N+](=O)[O-])ccc1N1CCOCC1` [CBK268674], the “% of control remaining” value is 135.684%.

Take `COc1ccc(C(C)C)cc1-c1cnc(N)c(NC2CCCCC2)n1` [CBK063618]: the “% of control remaining” value amounted to 113.077%.

As for `COc1ccc(Cl)cc1NC(=O)CN(C1CCCCC1)S(=O)(=O)c1ccccc1` [CBK265159], the “% of control remaining” value was 94.5598%.

On to `Cc1ccc(/C=C/C(=O)O)cc1S(=O)(=O)NCC1CCCO1` (stereo not shown) [CBK287267], for which the “% of control remaining” value was 151.168%.

For `COCCCn1c(=O)[nH]c2ncc(-c3cccc(OC)c3)nc21` [CBK064519], the “% of control remaining” value is recorded as 80.8112%.

For the compound `CCOC(=O)COc1ccc(/C=C2/SC(=S)N(c3cccc(C(=O)O)c3)C2=O)cc1` [CBK265632], the “% of control remaining” value is recorded as 100%.

`CC1CCc2n[nH]c(C(=O)NC3CN4CCC3CC4)c2C1` (stereo not shown) [CBK283193]: the “% of control remaining” value amounted to 117.598%.

`CCN(C(=O)c1cnccn1)C(CC1CCCCC1)c1ccccc1` (stereo not shown) [CBK061638]: the “% of control remaining” value turned out to be 105.847%.

On to `N#Cc1sc(N)c2ccc(-c3ccncc3)nc12` [CBK019761], for which the “% of control remaining” value is listed as 107.449%.

Regarding `Cc1noc(C)c1C(=O)N(C)CC(=O)Nc1ccc(Cl)c(C(F)(F)F)c1` [CBK295363], the “% of control remaining” value came out at 161.486%.
